Values of other authors as cited in patent US20030099677A1, “Cosmetic composition and method of treating skin” (Unilever Home & Personal Care USA, Division of Conopco. Inc., priority 2001, published 2003).
At least one compound was matched to its structure with a doubt left.

Legend:
procollagen I = settings: topical treatment; skin in vivo; cited from earlier work
decorin = settings: topical treatment; skin in vivo; cited from earlier work

CC1=C(/C=C/C(C)=C/C=C/C(C)=C/C(=O)O)C(C)(C)CCC1 [retinoic acid]
effect on procollagen I in vivo (procollagen I): up-regulation
effect on decorin in vivo (decorin): up-regulation
